Measurements reported in patent US6939679 (RIKEN, dated 2005).
Results are given in words; binding and its absence hold for the method and conditions named. For some of these results: In cells and extracts the contact can be indirect. Some results given as binding are weak or reduced against the parent protein; the word gives no strength. Sequences can lack the tags named with a protein.

The chains behind the UniProt entries cited, without tags or fusion partners. Residues count along the entry.
UniProt P97820, residues 2-1233: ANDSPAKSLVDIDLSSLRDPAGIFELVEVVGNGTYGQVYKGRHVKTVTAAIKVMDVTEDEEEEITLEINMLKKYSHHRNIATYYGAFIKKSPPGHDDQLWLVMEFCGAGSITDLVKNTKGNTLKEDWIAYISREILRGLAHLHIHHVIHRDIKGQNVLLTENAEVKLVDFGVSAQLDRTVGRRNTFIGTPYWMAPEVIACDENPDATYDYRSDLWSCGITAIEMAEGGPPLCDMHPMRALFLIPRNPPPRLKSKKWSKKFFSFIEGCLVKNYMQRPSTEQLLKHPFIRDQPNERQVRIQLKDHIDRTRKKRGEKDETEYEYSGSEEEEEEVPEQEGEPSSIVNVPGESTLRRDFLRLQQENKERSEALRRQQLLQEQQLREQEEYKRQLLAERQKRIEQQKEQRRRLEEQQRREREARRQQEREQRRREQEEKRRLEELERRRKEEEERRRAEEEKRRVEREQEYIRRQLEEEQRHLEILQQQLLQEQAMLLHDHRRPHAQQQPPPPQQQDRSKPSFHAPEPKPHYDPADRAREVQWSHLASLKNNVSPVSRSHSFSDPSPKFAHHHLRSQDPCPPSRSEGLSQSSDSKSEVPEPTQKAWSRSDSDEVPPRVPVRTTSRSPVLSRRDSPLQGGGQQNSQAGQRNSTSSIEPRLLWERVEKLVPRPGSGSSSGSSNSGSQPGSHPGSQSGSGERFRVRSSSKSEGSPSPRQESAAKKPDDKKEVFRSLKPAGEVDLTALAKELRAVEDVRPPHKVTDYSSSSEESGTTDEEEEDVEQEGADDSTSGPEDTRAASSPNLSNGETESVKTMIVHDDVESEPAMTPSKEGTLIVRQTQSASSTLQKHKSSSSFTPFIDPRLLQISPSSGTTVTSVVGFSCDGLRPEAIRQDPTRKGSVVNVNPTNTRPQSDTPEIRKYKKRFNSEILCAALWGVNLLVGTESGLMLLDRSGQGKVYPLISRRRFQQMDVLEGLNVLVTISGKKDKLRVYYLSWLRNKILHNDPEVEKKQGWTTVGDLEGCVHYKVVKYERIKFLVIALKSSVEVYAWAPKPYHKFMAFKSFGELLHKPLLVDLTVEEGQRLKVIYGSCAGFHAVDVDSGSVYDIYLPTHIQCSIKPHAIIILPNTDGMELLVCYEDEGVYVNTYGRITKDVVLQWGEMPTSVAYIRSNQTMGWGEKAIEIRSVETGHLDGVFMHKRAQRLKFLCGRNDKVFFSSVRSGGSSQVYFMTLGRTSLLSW
UniProt O95819: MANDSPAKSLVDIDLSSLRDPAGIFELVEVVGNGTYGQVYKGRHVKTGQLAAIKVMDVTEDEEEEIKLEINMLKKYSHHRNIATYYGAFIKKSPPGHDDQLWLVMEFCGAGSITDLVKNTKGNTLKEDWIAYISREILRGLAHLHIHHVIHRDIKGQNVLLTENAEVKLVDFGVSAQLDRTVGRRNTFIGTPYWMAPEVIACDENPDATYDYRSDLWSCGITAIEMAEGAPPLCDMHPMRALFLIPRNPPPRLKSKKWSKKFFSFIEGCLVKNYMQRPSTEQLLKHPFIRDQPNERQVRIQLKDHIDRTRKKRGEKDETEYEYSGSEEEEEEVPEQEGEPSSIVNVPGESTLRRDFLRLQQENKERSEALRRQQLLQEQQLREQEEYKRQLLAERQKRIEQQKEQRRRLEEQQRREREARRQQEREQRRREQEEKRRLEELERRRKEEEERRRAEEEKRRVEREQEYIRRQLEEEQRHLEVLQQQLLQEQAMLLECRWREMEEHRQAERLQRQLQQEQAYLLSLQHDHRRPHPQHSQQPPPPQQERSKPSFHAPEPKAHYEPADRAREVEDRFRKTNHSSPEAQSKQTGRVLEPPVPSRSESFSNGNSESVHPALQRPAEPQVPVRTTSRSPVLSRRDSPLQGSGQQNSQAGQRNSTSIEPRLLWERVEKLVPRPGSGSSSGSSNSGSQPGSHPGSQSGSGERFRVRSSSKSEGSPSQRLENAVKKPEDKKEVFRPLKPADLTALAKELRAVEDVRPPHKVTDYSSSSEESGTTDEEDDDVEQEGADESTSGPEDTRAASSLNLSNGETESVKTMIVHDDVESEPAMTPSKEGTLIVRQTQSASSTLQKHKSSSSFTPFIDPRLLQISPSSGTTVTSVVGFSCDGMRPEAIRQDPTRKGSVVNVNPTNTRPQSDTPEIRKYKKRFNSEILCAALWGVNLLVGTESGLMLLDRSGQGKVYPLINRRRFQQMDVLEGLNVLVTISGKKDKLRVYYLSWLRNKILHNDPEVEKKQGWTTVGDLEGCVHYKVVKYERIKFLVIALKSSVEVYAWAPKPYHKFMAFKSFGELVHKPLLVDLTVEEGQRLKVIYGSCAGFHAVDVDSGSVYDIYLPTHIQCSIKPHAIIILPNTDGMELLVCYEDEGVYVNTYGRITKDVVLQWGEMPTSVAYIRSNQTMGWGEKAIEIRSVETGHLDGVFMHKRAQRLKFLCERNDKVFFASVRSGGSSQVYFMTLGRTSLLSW

Assays:
[1] = biological target: T1, NADE-lexA fusion protein (mouse) (UniProt Q9WTZ9); assay: yeast two-hybrid, lexA-NADE bait against VP16 mouse embryo cDNA library; His selection, beta-gal assay and mating test
T1 sequence: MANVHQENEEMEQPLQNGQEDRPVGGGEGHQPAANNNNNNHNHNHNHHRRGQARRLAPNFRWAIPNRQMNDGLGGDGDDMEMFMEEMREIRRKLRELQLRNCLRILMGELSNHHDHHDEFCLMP

[2] = biological target: T2, mNADE with Myc-His tag expressed in 293T cells (mouse) (UniProt Q9WTZ9); assay: co-immunoprecipitation from 293T cells co-transfected with NADE-MycHis and FLAG-human NIK (HGK); anti-FLAG precipitation, anti-NADE Western blot
T2 sequence (looked up): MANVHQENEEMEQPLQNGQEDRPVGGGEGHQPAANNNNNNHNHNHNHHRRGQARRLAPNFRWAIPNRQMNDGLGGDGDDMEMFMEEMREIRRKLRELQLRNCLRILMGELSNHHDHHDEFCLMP

Molecule	binding [1]	binding [2]
NIK (Nek interacting kinase) (from UniProt P97820 2-1233) (enzyme)	binds	–
full length human NIK (HGK) connected with FLAG (from UniProt O95819 1-1239) (enzyme)	–	binds
mus 14-3-3 beta (protein) MTMDKSELVQKAKLAEQAERYDDMAAAMKAVTEQGHELSNEERNLLSVAYKNVVGARRSSWRVISSIEQKTERNEKKQQMGKEYREKIEAELQDICNDVLELLDKYLILNATQAESKVFYLKMKGDYFRYLSEVASGENKQTTVSNSQQAYQEAFEISKKEMQPTHPIRLGLALNFSVFYYEILNSPEKACSLAKTAFDEAIAELDTLNEESYKDSTLIMQLLRDNLTLWTSENQGDEGDAGEGEN	binds	–
Mus 14-3-3 eta (protein) GDREQLLQRARLAEQAERYDDMASAMKAVTELNEPLSNEDRNLLSVAYKNVVGARRSSWRVISSIEQKTMADGNEKKLEKVKAYREKIEKELETVCNDVLALLDKFLIKNCNDFQYESKVFYLKMKGDYYRYLAEVASGEKKNSVVEASEAAYKEAFEISKEHMQPTHPIRLGLALNFSVFYYEIQNAPEQACLLAKQAFDDAIAELDTLNEDSYKDSTLIMQLLRDNLTLWTSDQQDEEAGEGN	binds	–
